Measured values as given in article PMC3904858.
Results are given in words; binding and its absence hold for the method and conditions named. Binding seen in cells or lysates may run through a third protein. A yes stands for co-enrichment or nearness to the bait. Other partners may have been found.

Protein sequences, listed by entry. Tags and fused reporters are not part of them. Residues count along the entry.
UniProt O00206, residues 24-839: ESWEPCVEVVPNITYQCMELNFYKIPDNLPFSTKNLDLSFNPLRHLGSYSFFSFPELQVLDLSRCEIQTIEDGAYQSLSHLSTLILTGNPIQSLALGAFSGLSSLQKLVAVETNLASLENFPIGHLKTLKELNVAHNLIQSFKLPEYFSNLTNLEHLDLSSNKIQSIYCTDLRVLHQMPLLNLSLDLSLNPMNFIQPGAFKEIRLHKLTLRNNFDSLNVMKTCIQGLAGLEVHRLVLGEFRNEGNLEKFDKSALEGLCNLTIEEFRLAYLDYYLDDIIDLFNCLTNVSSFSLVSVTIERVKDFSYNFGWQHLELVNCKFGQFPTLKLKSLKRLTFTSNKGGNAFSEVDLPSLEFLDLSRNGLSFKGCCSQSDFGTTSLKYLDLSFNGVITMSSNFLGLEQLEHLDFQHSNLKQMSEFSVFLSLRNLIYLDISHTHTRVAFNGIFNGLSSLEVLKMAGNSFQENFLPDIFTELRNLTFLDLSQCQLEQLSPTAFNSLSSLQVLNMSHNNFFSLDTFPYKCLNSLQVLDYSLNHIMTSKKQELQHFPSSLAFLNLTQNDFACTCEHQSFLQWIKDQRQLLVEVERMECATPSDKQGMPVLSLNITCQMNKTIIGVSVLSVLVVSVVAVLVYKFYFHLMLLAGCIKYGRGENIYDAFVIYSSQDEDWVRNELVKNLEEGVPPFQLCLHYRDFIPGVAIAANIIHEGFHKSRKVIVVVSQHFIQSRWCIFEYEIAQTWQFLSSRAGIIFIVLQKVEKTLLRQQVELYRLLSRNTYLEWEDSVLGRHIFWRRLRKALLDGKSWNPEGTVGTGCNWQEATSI
UniProt P35579: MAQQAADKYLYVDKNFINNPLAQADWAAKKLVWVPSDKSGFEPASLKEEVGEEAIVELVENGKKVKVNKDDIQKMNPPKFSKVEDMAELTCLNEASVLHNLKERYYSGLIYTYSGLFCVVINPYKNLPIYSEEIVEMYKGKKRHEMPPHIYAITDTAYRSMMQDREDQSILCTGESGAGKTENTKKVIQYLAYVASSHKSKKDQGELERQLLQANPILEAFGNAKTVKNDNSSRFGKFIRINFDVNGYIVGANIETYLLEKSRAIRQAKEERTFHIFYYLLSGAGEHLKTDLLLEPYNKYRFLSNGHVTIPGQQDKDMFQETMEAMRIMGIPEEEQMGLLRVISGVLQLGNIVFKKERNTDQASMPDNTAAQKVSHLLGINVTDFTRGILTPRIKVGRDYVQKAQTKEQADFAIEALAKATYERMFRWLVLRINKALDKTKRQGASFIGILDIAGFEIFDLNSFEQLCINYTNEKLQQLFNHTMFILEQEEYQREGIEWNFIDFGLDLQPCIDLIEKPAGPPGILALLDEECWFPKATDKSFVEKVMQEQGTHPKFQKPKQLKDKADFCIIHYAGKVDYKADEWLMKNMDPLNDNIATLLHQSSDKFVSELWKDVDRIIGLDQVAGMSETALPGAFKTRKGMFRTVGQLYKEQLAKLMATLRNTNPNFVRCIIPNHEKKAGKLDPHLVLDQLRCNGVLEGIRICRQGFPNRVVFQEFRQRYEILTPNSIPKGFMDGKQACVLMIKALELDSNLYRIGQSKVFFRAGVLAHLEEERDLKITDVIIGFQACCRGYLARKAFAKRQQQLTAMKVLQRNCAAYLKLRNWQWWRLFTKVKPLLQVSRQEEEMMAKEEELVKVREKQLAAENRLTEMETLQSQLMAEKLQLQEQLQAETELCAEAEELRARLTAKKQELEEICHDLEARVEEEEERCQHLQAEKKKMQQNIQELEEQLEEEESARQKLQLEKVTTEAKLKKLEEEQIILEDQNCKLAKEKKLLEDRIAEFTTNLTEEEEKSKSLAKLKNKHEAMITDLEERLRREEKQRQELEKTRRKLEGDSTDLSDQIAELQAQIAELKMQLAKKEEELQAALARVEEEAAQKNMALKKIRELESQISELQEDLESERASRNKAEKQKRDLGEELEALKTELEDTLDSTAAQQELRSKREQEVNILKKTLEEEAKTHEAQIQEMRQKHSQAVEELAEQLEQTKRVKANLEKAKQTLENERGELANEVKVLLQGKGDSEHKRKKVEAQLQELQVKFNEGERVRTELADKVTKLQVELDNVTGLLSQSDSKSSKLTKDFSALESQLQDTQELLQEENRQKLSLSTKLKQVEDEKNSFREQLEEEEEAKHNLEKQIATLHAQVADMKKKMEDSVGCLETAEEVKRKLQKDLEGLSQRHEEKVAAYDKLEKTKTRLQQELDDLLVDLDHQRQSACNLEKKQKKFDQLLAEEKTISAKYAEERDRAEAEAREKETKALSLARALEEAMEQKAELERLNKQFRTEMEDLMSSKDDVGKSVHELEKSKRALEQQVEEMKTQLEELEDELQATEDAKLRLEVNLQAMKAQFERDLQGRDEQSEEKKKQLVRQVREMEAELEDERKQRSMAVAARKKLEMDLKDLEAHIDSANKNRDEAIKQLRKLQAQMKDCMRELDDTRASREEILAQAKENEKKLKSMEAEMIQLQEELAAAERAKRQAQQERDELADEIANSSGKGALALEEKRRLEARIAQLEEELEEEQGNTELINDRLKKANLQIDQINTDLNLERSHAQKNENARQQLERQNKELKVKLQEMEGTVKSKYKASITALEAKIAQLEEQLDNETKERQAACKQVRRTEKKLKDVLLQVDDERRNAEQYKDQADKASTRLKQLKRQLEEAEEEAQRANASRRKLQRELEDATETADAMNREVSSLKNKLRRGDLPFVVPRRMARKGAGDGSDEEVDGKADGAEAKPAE
UniProt P21333: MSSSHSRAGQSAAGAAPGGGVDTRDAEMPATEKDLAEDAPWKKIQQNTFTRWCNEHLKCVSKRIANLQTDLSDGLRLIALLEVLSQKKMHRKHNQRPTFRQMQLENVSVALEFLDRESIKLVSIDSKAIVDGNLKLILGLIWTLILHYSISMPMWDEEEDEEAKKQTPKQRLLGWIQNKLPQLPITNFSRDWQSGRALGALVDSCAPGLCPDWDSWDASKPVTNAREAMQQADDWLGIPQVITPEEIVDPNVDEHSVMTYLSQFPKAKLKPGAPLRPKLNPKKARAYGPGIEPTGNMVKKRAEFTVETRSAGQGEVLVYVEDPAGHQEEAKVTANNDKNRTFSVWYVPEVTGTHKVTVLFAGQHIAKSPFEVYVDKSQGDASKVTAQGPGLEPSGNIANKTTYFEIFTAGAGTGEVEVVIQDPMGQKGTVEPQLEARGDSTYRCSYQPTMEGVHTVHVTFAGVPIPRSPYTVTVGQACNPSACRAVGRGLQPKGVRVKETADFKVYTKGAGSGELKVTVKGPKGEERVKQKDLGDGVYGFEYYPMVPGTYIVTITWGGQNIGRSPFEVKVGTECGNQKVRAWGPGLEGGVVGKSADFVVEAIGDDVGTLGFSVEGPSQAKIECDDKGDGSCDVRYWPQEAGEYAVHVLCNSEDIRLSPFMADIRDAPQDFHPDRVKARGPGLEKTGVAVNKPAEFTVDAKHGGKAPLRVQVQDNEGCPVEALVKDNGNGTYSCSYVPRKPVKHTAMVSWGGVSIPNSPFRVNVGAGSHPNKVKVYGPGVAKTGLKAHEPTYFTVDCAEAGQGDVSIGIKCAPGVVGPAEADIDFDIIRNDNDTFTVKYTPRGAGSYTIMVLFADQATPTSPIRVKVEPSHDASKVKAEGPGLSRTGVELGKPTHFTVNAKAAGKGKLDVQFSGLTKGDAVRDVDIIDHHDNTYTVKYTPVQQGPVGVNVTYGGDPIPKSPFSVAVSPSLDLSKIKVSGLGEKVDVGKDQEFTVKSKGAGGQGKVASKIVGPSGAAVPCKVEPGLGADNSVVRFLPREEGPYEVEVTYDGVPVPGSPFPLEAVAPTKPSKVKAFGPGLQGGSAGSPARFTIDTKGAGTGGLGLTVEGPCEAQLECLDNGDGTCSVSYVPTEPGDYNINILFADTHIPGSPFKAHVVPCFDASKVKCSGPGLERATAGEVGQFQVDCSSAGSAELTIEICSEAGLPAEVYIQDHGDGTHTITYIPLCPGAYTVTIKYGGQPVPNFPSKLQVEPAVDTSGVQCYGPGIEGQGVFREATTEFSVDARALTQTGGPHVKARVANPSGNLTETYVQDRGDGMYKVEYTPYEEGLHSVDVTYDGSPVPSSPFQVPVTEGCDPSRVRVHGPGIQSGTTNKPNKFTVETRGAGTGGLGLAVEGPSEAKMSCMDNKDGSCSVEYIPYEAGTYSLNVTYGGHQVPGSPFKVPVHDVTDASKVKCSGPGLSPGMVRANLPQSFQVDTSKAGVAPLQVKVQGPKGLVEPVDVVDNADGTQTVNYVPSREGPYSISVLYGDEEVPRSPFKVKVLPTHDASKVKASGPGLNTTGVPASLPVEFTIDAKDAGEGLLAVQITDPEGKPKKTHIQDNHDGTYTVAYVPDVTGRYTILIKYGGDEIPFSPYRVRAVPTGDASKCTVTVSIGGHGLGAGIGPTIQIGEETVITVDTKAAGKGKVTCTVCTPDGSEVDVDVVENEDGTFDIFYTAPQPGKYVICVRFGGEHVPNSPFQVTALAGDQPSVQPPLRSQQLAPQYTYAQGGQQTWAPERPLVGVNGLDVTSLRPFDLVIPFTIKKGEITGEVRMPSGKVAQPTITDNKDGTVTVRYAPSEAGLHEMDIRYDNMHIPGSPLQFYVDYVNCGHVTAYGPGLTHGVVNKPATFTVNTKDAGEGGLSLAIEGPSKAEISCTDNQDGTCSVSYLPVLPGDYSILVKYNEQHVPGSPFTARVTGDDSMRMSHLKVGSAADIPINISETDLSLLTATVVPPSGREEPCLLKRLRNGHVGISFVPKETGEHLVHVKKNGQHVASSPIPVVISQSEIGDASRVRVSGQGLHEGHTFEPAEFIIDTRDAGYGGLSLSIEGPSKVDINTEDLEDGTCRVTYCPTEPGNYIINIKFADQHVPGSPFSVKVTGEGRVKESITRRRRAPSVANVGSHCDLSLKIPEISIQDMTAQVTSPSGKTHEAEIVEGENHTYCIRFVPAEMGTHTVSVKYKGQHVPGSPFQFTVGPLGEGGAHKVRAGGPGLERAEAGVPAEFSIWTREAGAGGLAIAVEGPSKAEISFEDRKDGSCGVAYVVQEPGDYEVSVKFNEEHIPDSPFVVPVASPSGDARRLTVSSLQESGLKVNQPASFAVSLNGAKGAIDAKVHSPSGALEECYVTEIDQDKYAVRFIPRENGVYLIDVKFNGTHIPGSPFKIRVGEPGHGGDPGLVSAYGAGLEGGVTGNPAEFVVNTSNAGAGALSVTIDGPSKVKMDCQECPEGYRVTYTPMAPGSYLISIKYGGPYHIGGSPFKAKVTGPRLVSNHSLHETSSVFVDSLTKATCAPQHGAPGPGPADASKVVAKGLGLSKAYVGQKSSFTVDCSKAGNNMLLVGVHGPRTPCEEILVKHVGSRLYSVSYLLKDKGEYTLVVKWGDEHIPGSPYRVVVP

Target: Toll-like receptor 4 (human (endogenous in platelets)) (UniProt O00206)
Assay: affinity purification with mass spectrometry; untreated washed human platelet lysate; IP with anti-TLR4 antibody, mouse IgG IP as control; SDS-PAGE, Coomassie; bands present only in the anti-TLR4 IP excised, trypsin digest, nano-LC/MS/MS

binding	Substance
binds	myosin heavy chain-9 (myosin-9) (from UniProt P35579 1-1960)
binds	filamin A (from UniProt P21333 1-2647)
